system: HeLa S-3 cells; assay: Inhibition of cell growth (sulforhodamine B) to determine GI50; type: cell-based; conditions: aza-analog versus its carbocyclic congener, HeLa cells; Table 5
Experimental: Growth inhibition (GI50) values were measured with HeLa S-3 cells selected for growth on plastic. The procedure was based on the protocol of Skehan et al. (Skehan, P., et al., J. Natl. Cancer Inst., 82:1107-1112 (1990), which is hereby incorporated by reference). HeLa cells were plated at 2×10^4 cells/well in 96 well plates. One day later, a control plate was fixed by addition of TCA to 5%. After five rinses with tap water, the plate was air dried and stored at 4° C. Test compounds were added to the remaining plates at 10-fold dilutions between 0.01 and 100 μM. Two days later, all plates were fixed as described above. Cells were then stained by the addition of 100 μl per well of 0.4% sulforhodamine B (SRB) in 1% acetic acid for 30 min at 4° C. Wells were then quickly rinsed 5× with acetic acid (1%) and allowed to air dry. The SRB was then solubilized by the addition of 100 μl per well of unbuffered 10 mM Tris base. Dye was quantified by measuring absorbance at 490 nm on a Molecular Devices kinetic microplate reader. Growth at each inhibitor concentration relative to the untreated control was calculated according to the following equation: percent growth=100×(T−To)/(C−To), where T was the average optical density (OD) of the test wells after 2 days of treatment, To was the average OD of the wells in the control plate on day 0 and C was the average OD of untreated wells. Plots of percent growth versus inhibitor concentration were used to determine the GI50.
The data below shown in Table 4 summarizes the in vitro cyclin/cdk inhibition constants (IC50) of HeLa Cells for the compounds of the current invention.

Row | Compound | Fold Improvement
1 | CCN(CC)CCn1nc2c3c(c(CNS(C)(=O)=O)ccc31)Sc1ccncc1-2 [drawing 118] | 3
2 | CCN(CC)CCn1nc2c3c(c(CNC=O)ccc31)Sc1ncccc1-2 [drawing 126] | 2
3 | CCN(CC)CCn1nc2c3c(c(CNC(=O)OC)ccc31)Sc1ncccc1-2 [drawing 120] | 6
4 | CCN(CC)CCn1nc2c3c(cccc31)Sc1ccncc1-2 | 9
5 | CCN(CC)CCNc1ccc(CNC(=O)OC)c2sc3ccncc3c(=O)c12 | 10
6 | CCN(CC)CCNc1ccc(CNC=O)c2sc3ccncc3c(=O)c12 | 3
7 | CCN(CC)CCNc1ccc(CNS(C)(=O)=O)c2sc3ccncc3c(=O)c12 | 7.5
8 | CCN(CC)CCn1nc2c3c(c(CNC=O)ccc31)Sc1ccncc1-2 [drawing 114] | 5
9 | CCN(CC)CCn1nc2c3c(c(CN)ccc31)Sc1ncccc1-2 [drawing 124] | 5
10 | CCN(CC)CCn1nc2c3c(c(CN)ccc31)Sc1ccncc1-2 [drawing 112] | 5
11 | CCN(CC)CCNc1ccc(CN)c2sc3ccncc3c(=O)c12 | 1
12 | CCN(CC)CCNc1cccc2sc3ccncc3c(=O)c12 | 3.5
13 | CCN(CC)CCn1nc2c3c(c(CNC(=O)OC)ccc31)Sc1ccncc1-2 [drawing 116] | 30
14 | CCN(CC)CCn1nc2c3c(c(CNS(C)(=O)=O)ccc31)Sc1ncccc1-2 [drawing 122] | 3

same assay, conditions: ratio of GI50 of second compound to first compound of pair (nitrogen position); Table 6

Row | Compound | Folds
15 | CCN(CC)CCn1nc2c3c(c(CNS(C)(=O)=O)ccc31)Sc1ccncc1-2 [drawing 133] | 1.5
16 | CCN(CC)CCn1nc2c3c(c(CN)ccc31)Sc1ccncc1-2 [drawing 127] | 1
17 | CCN(CC)CCNc1ccc(C)c2sc3ccncc3c(=O)c12 | 7.5
18 | CCN(CC)CCn1nc2c3c(c(CNC=O)ccc31)Sc1ccncc1-2 [drawing 129] | 10
19 | CCN(CC)CCn1nc2c3c(c(C)ccc31)Sc1ccncc1-2 | 6
20 | CCN(CC)CCn1nc2c3c(c(CNC(=O)OC)ccc31)Sc1ccncc1-2 [drawing 131] | 5
